From PMC8164026, “Intrapulmonary administration of purified NEIL2 abrogates NF-κB–mediated inflammation”
These are yes or no findings as the source states them, for the method shown. For part of these data: Binding seen in cells or lysates may run through a third protein. Some binding calls cover weakened binding; strength is not graded here. Where a sequence is shown, tags or fusion partners need not be part of it.

Protein sequences, listed by entry. Tags and fused reporters are not part of them. Lines headed by an entry give the natural chain unless they say otherwise; changes in a name come on top.
UniProt Q04206: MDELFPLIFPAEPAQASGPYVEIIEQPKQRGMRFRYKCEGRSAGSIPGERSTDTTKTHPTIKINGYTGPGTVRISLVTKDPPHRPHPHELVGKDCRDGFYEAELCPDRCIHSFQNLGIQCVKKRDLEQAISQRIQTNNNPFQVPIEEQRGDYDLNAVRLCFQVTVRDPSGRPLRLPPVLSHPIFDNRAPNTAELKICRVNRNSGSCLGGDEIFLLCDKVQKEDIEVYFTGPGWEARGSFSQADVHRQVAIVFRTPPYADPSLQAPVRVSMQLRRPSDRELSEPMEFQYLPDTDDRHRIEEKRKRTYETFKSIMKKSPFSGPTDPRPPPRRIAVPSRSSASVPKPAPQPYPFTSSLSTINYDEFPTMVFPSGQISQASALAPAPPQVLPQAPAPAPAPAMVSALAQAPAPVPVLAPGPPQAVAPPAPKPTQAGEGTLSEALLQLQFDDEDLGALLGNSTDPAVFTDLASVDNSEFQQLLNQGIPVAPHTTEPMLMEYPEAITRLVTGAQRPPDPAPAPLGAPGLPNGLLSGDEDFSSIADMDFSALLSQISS

What was measured:
[1] = molecular target: T1, Recombinant FLAG-tagged NEIL2 (NEIL2-FLAG) from h358 cells (UniProt Q969S2); assay: co-IP; anti-FLAG beads preincubated 1 h at 4 °C with whole cell lysates of h358 cells expressing control or NEIL2-FLAG vector, washed, then incubated 1 h at 4 °C with 1 μg rHis-RelA or GST-tagged RelA domains in 300 μl IP buffer (25 mM Tris-HCl pH 7.5, 150 mM NaCl, 1% Triton X-100, 5% glycerol, 1 mM DTT); immunoblot with anti-RelA, FLAG or GST; both purified
T1 sequence: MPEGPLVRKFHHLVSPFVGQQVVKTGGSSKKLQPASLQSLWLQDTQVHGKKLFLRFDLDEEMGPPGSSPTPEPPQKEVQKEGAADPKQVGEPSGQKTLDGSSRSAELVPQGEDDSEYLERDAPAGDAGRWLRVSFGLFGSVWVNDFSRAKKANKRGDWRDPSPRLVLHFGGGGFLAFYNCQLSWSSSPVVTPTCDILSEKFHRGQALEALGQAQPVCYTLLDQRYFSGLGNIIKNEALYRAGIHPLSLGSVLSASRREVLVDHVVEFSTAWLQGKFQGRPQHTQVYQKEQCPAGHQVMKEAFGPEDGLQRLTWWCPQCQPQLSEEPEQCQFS

[2] = molecular target: T2, C-terminal FLAG-tagged Nei-like DNA glycosylase 2 (NEIL2-FLAG), stably expressed in BEAS-2B cells (UniProt Q969S2); assay: co-IP; anti-FLAG beads incubated with nuclear extracts of BEAS2B cells stably expressing NEIL2-FLAG, after TNFα treatment; immunoblot with antibodies against RelA or FLAG
T2 sequence: T1 sequence

Substance | binding [1] | binding [2]
GST-tagged transcription-activation domain of RelA (GST-TAD) (from UniProt Q04206 429-551) (domain or fragment) | no binding (tested: 1 μg in 300 μl of IP buffer) | –
Recombinant full-length His-tagged RelA (rHis-RelA) (from UniProt Q04206 1-551) | binds | –
RelA (NF-κB p65), endogenous in BEAS-2B cells (from UniProt Q04206 1-551) | – | binds
